The test system of this experiment is B6C3F1 mice, Lewis lung carcinoma iv, survival T/C. The experiment is described as follows: NCI In Vivo Anticancer Drug Screen. Data for tumor model Lewis Lung Carcinoma (intravenous) in B6C3F1 mice. To be noted: T/C endpoint: median survival time, schedule: Q01DX009 (ip), higher T/C = longer survival. As for the experimental part: The antitumor activity of compounds was measured in mice bearing transplantable tumors. Survival or tumor size were measured and the results are expressed as the measurement made in the treated group (T) divided by the measurement made in the vehicle treated control group (C). The tumor model used in this assay is Lewis Lung Carcinoma (intravenous) in B6C3F1 mice

Where [1] appears, read: dose: 12.5 mg/kg/injection, vehicle: saline.
[2] abbreviates: dose: 25.0 mg/kg/injection, vehicle: saline.
Where [3] appears, read: dose: 50.0 mg/kg/injection, vehicle: saline.
Setting [4] is: dose: 100.0 mg/kg/injection, vehicle: saline.
Where [5] appears, read: dose: 200.0 mg/kg/injection, vehicle: saline.
Where [6] appears, read: dose: 400.0 mg/kg/injection, vehicle: saline.

The list shows only some results of the screen, not a fair sample: its compounds were picked by chemical class. Not every dose and run of a compound is shown. T/C: endpoint of the treated group in % of that of the vehicle group. Some doses have a count of surviving animals in place of a T/C: the source holds a T/C of zero for them, seemingly a mark for toxic or unscored doses. Some survivor counts are full or nearly so, which does not show that the dose was tolerated: survival well below the control is almost never listed, so the zero probably covers shortened survival too. Counts of survivors are from the toxicity check (mostly the fifth day) where no day follows; animals may have died later. Schedules are NCI's codes, taken here to give the interval after Q, in days (D) or hours (H), and the number of doses after X. Some metal complexes and salts are drawn in pieces, as in the source, so charges may not balance. For survival time, this PubChem deposit counts one and a half times the control or more as active, and values a quarter to a half above the control carry no call in these data; other NCI protocols may use other cut-offs. Some T/C values carry the count of animals alive at the toxicity check (mostly the fifth day); where neither a count nor a note follows, no animal had died by that day.

For `CC1(C)CN1P(=O)(Nc1ncccn1)N1CC1(C)C` (centres undefined), the T/C reads like this: under setting [1], 101 % of control; under setting [2], 101 % of control; under setting [3], 110 % of control; under setting [4], 105 % of control. Further, the survivor count was 10 of 10 under setting [5] and 9 of 10 under setting [6].

Consider `ICCN(CCI)c1cccc2ccccc12`, for which the T/C is 111 % of control (dose: 3.12 mg/kg/injection, vehicle: Klucel (hydroxypropylcellulose) (HPC)) and 114 % of control [9 of 10 alive] (dose: 6.25 mg/kg/injection, vehicle: Klucel (hydroxypropylcellulose) (HPC)). In addition, the survivor count (dose: 12.5 mg/kg/injection, vehicle: Klucel (hydroxypropylcellulose) (HPC)) is 10 of 10; the survivor count (dose: 25.0 mg/kg/injection, vehicle: Klucel (hydroxypropylcellulose) (HPC)) is 10 of 10; the survivor count (dose: 50.0 mg/kg/injection, vehicle: Klucel (hydroxypropylcellulose) (HPC)) is 5 of 10; the survivor count (dose: 100.0 mg/kg/injection, vehicle: Klucel (hydroxypropylcellulose) (HPC)) is 0 of 10.

On to `[Au].[C-]#N.[C-]#N`, for which the T/C by setting is: (dose: 0.62 mg/kg/injection, vehicle: saline) 96 % of control; (dose: 1.25 mg/kg/injection, vehicle: saline) 92 % of control; (dose: 2.5 mg/kg/injection, vehicle: saline) 114 % of control; (dose: 5.0 mg/kg/injection, vehicle: saline) 97 % of control; (dose: 10.0 mg/kg/injection, vehicle: saline) 105 % of control. Under “dose: 20.0 mg/kg/injection, vehicle: saline”, the survivor count is given as 0 of 10.

As for `Cc1ccc(Sc2ccc([N+](=O)[O-])cc2[N+](=O)[O-])c([N+](=O)[O-])c1`, the T/C was 100 % of control under setting [1]; 102 % of control under setting [2]; 101 % of control under setting [3]; 98 % of control under setting [4]; 101 % of control under setting [5]; 101 % of control under setting [6].

The values above are taken from PubChem BioAssay AID276 (DTP/NCI, 2004).
